Record: PubChem BioAssay AID1259405 (NCATS, 2018)

Assay: 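Knock-downs that lift recombinant protein yield in hamster ovary cells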 (primary screen)
System: Chinese hamster CHO-K1 ovary cells with stable secreted eGFP expression
Knock-down reagent: single siRNA against mouse genes, 0.8 pmol siRNA per well (2 µl of 400 nM stock)
Timing: 3 days
Read-out: 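Percent of the per-plate non-targeting control median for intracellular GFP per well by laser scanning cytometry and for cell viability by ATP luminescence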
Direction: GFP, % of control: higher = more GFP per well, higher productivity
Rule for the call: 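a knock-down is called active if GFP reaches 120% or more of non-targeting control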
Here is an unselected part of about 50,000 reagents tested. About 4,000 of them (8%) count as active. 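Mouse siRNA library applied to hamster cells; one well for each siRNA.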 Entries without a mark were called inactive. Further read-outs or replicates are left out here.

GFP, % of control, by gene knocked down and reagent
Stab2: SID363553655 85.3; SID363561612 131 (active); SID363565350 91.9
Adcy8: SID363573119 140 (active); SID363577695 68.6; SID363581215 98.4
Zdhhc5: SID363556634 41.4; SID363563538 67.4; SID363587084 50.6
Cfap36: SID363542625 71.9; SID363552116 70.2; SID363559721 105
Pcnx3: SID363554768 77.4; SID363568215 68.7; SID363586274 77.2
Prss2: SID363547496 94.1; SID363558265 79.4; SID363560023 95.7
Fam229b: SID363543549 179 (active); SID363553042 47.8; SID363558890 71.1; SID363589700 117; SID363589702 114; SID363589788 98.4
Zfp287: SID363573608 64.5; SID363581352 36.6; SID363583816 73.3
Ovca2: SID363573840 84.2; SID363581584 66.4; SID363584048 85.9
Tmem147: SID363544070 105; SID363550398 74.1; SID363556947 110
Ptpn14: SID363575004 107; SID363580636 115; SID363582748 90.8
Rps6ka1: SID363547297 94.4; SID363558066 44; SID363559824 69.8

Records listed so far whose gene name begins with T or t (3):
GFP, % of control, by gene knocked down and reagent
Tmem147: SID363544070 105; SID363550398 74.1; SID363556947 110

Further results:
GFP, % of control, by gene knocked down and reagent
Syt1: SID363582471 133 (active); SID363584231 85.7
Osbpl2: SID363554586 70.6; SID363568033 100; SID363586092 60.4
Abca4: SID363574894 120; SID363575950 42.3; SID363580526 162 (active); SID363589592 162 (active); SID363589593 177 (active); SID363589715 112
Psme3ip1: SID363543476 49.3; SID363552969 120 (active); SID363558817 79.3
Or13p8: SID363544443 84.1; SID363550771 95.4; SID363557320 53
Wdr38: SID363543334 69.4; SID363552827 56.5; SID363558675 64.2
Med8: SID363562170 106; SID363567308 98.3; SID363584665 58.5
Dnaaf6: SID363539822 73.7; SID363561123 87.7; SID363565213 104
Trat1: SID363547135 48.4; SID363549947 75.4; SID363588001 73.9
Kcnh6: SID363574841 94.1; SID363575897 45.6; SID363580473 99.5
Tpsg1: SID363574530 103; SID363575586 49.2; SID363580162 53.4
Cog7: SID363550272 65.4; SID363564781 55.8; SID363588326 53.4
Nr1i2: SID363544383 123 (active); SID363550711 111; SID363557260 88.3
F11r: SID363555223 84; SID363563884 120 (active); SID363587430 81.8
Nr3c1: SID363581961 111; SID363589455 69
